Source: the supplement of paper PMC10727501
This is one part of the list. This data set is noisy: repeats of one test often differ as much as different tests do.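 Researchers measured free-swimming zebrafish larvae's O-bend response probability to dark flashes (naive: first five; training: remaining flashes of four 60-flash blocks; test: later 60-flash block) and OMR turning toward alternating leftward/rightward LED motion. Six treated larvae were compared to sixty 0.1% DMSO controls, with |SSMD|≥2 marking a hit.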

Key:
Conditions in all cases: 10 µM; pre-incubation: 30-90 min
[1] = tested on: Danio rerio larvae (5 dpf, TLF); assay: OMR-Perf (SSMD vs DMSO vehicle); higher = higher than vehicle (e.g. higher dark-flash O-bend response probability, or better optomotor performance)
[2] = tested on: Danio rerio larvae (5 dpf, TLF); assay: Prob-Test (SSMD vs DMSO vehicle); higher = higher than vehicle (e.g. higher dark-flash O-bend response probability, or better optomotor performance)
[3] = tested on: Danio rerio larvae (5 dpf, TLF); assay: Prob-Naive (SSMD vs DMSO vehicle); higher = higher than vehicle (e.g. higher dark-flash O-bend response probability, or better optomotor performance)
[4] = tested on: Danio rerio larvae (5 dpf, TLF); assay: Prob-Train (SSMD vs DMSO vehicle); higher = higher than vehicle (e.g. higher dark-flash O-bend response probability, or better optomotor performance)

Structure (SMILES): C[C@H]1C[C@H]2[C@@H]3CCC4=CC(=O)C=C[C@]4(C)[C@]3(F)[C@H](O)C[C@]2(C)[C@]1(O)C(=O)CO [Betamethasone]
- OMR-Perf [1]: 0.521
- Prob-Test [2]: -0.084
- Prob-Naive [3]: -0.0365
- Prob-Train [4]: 0.389

Structure (SMILES): CN(C)c1ccc(-c2nc3c(N4CCN(CC(=O)Nc5nccs5)CC4)c(Cl)cnc3[nH]2)cc1
- OMR-Perf [1]: -0.177
- Prob-Test [2]: -0.163
- Prob-Naive [3]: -0.043
- Prob-Train [4]: -0.195

Structure (SMILES): N#CC[C@H](C1CCCC1)n1cc(-c2ncnc3[nH]ccc23)cn1
- OMR-Perf [1]: -0.387
- Prob-Test [2]: 0.176
- Prob-Naive [3]: 0.564
- Prob-Train [4]: -0.151

Structure (SMILES): COc1cccc(C=NCCN=Cc2cccc(OC)c2[O-])c1[O-].[Cl-].[Mn+3]
- OMR-Perf [1]: -0.154
- Prob-Test [2]: 0.254
- Prob-Naive [3]: 0.153
- Prob-Train [4]: 0.404

Structure (SMILES): COc1ccc(-c2nc(N3CCOCC3)c3sc(CN(C)c4ncc(C(=O)NO)cn4)cc3n2)cn1
- OMR-Perf [1]: -0.215
- Prob-Test [2]: 0.106
- Prob-Naive [3]: 0.319
- Prob-Train [4]: 0.125

Structure (SMILES): CC(C)C[C@H](NC(=O)[C@H](Cc1ccccc1)NC(=O)c1cnccn1)B(O)O [Bortezomib (PS-341)]
- OMR-Perf [1]: -0.37
- Prob-Test [2]: -0.474
- Prob-Naive [3]: 0.456
- Prob-Train [4]: 0.381

Structure (SMILES): CC(C)NCC(O)COc1ccc(CCOCC2CC2)cc1.Cl (stereo unspecified) [Betaxolol hydrochloride (Betoptic)]
- OMR-Perf [1]: 0.842
- Prob-Test [2]: 0.528
- Prob-Naive [3]: 0.549
- Prob-Train [4]: -0.091

Structure (SMILES): Nc1c(CC(=O)[O-])cccc1C(=O)c1ccccc1.O.[Na+] [Amfenac Sodium Monohydrate]
- OMR-Perf [1]: 0.0588
- Prob-Test [2]: 0.61
- Prob-Naive [3]: 0.241
- Prob-Train [4]: 0.112

Structure (SMILES): NC(=O)C1CCCc2c1[nH]c1ccc(Cl)cc21 (stereo unspecified) [EX 527 (Selisistat)]
- OMR-Perf [1]: -0.586
- Prob-Test [2]: -0.249
- Prob-Naive [3]: -3.14
- Prob-Train [4]: -2.27
